PubChem BioAssay AID1259308, NCATS, 2017
This is an unselected part of about 59,000 deposited reagents. About 1,510 of them (2.6%) were called active. 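Calls use total luciferase alone and ignore viability, so some active siRNAs may act by altering cell number.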 Reagents against one gene are numbered here. Not all columns of the deposit are shown.

Test: 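Knock-downs that increase output of a recombinant reporter protein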 (primary screen)
System: human HEK293 embryonic kidney cells stably expressing firefly luciferase (HEK-CMV-Luc2-Hygro)
Reagents: single siRNA against human genes, 0.8 pmol siRNA per well
Time to read-out: 72 h
Read-out: 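Reporter luminescence and viable-cell signal on separate replicate plates, given as percent of non-targeting control and median/MAD z-scores, plus per-cell luciferase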
Direction: total luciferase, z-score and total luciferase, % of control: higher = more reporter protein produced
Call rule: 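An siRNA counts as active if its total luciferase robust z-score exceeds 3; genes with two or more such siRNAs out of three were retested with fresh siRNAs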
Meaning of the calls: active = raised luciferase; inactive = no rise

LOC649935 (retired record) #1
- total luciferase, z-score: -0.438
- total luciferase, % of control: 73.2
- Call: inactive

LOC649935 (retired record) #2
- total luciferase, z-score: -1.8
- total luciferase, % of control: 46.1
- Call: inactive

LOC649935 (retired record) #3
- total luciferase, z-score: 0.176
- total luciferase, % of control: 85.4
- Call: inactive

GREM2 #1
- total luciferase, z-score: 0.247
- total luciferase, % of control: 86.8
- Call: inactive

GREM2 #2
- total luciferase, z-score: 2.07
- total luciferase, % of control: 123
- Call: inactive

GREM2 #3
- total luciferase, z-score: -2.72
- total luciferase, % of control: 27.8
- Call: inactive

FHIP1B #1
- total luciferase, z-score: 1.17
- total luciferase, % of control: 105
- Call: inactive

FHIP1B #2
- total luciferase, z-score: -0.673
- total luciferase, % of control: 68.5
- Call: inactive

FHIP1B #3
- total luciferase, z-score: 2.97
- total luciferase, % of control: 141
- Call: inactive

RETREG3 #1
- total luciferase, z-score: 0.759
- total luciferase, % of control: 97
- Call: inactive

RETREG3 #2
- total luciferase, z-score: 0.733
- total luciferase, % of control: 96.5
- Call: inactive

RETREG3 #3
- total luciferase, z-score: 2.42
- total luciferase, % of control: 130
- Call: inactive

TAX1BP3 #1
- total luciferase, z-score: -1.21
- total luciferase, % of control: 57.8
- Call: inactive

TAX1BP3 #2
- total luciferase, z-score: -1.42
- total luciferase, % of control: 53.6
- Call: inactive

TAX1BP3 #3
- total luciferase, z-score: 0.267
- total luciferase, % of control: 87.2
- Call: inactive

GMPPA #1
- total luciferase, z-score: -0.132
- total luciferase, % of control: 79.3
- Call: inactive

GMPPA #2
- total luciferase, z-score: -1.12
- total luciferase, % of control: 59.6
- Call: inactive

GMPPA #3
- total luciferase, z-score: -0.191
- total luciferase, % of control: 78.1
- Call: inactive

TCEAL3 #1
- total luciferase, z-score: 0.0894
- total luciferase, % of control: 83.7
- Call: inactive

TCEAL3 #2
- total luciferase, z-score: -1.08
- total luciferase, % of control: 60.4
- Call: inactive

TCEAL3 #3
- total luciferase, z-score: -0.0991
- total luciferase, % of control: 79.9
- Call: inactive

TNFRSF4 #1
- total luciferase, z-score: -0.513
- total luciferase, % of control: 71.7
- Call: inactive

TNFRSF4 #2
- total luciferase, z-score: -0.68
- total luciferase, % of control: 68.4
- Call: inactive

TNFRSF4 #3
- total luciferase, z-score: 1.66
- total luciferase, % of control: 115
- Call: inactive

LIF #1
- total luciferase, z-score: -1.9
- total luciferase, % of control: 44.2
- Call: inactive

LIF #2
- total luciferase, z-score: 1.35
- total luciferase, % of control: 109
- Call: inactive

LIF #3
- total luciferase, z-score: -0.0245
- total luciferase, % of control: 81.4
- Call: inactive

TMPRSS11GP #1
- total luciferase, z-score: 0.262
- total luciferase, % of control: 87.1
- Call: inactive

TMPRSS11GP #2
- total luciferase, z-score: 1.11
- total luciferase, % of control: 104
- Call: inactive

TMPRSS11GP #3
- total luciferase, z-score: 1.24
- total luciferase, % of control: 106
- Call: inactive

VPS54 #1
- total luciferase, z-score: 0.905
- total luciferase, % of control: 99.9
- Call: inactive

VPS54 #2
- total luciferase, z-score: -0.592
- total luciferase, % of control: 70.1
- Call: inactive

VPS54 #3
- total luciferase, z-score: 0.391
- total luciferase, % of control: 89.7
- Call: inactive

5 entries already listed, sorted by “total luciferase, % of control”, ascending.
TAX1BP3 #2
- total luciferase, z-score: -1.42
- total luciferase, % of control: 53.6
- Call: inactive

TAX1BP3 #1
- total luciferase, z-score: -1.21
- total luciferase, % of control: 57.8
- Call: inactive

RETREG3 #2
- total luciferase, z-score: 0.733
- total luciferase, % of control: 96.5
- Call: inactive

RETREG3 #1
- total luciferase, z-score: 0.759
- total luciferase, % of control: 97
- Call: inactive

RETREG3 #3
- total luciferase, z-score: 2.42
- total luciferase, % of control: 130
- Call: inactive
